In the supplement of paper PMC6418307:
Single values of this set are uncertain.

Tested on: primary mouse cortical neurons
Experiment: cell health score (luciferase spike-in reads / total reads per well) (fraction); higher = fewer cellular reads, worse cell health / toxicity
Conditions: treatment time 24 h
[1] = 0.01 µM, sex of neuron culture: Female
[2] = 0.01 µM, sex of neuron culture: Male
[3] = 0.1 µM, sex of neuron culture: Female
[4] = 0.1 µM, sex of neuron culture: Male
[5] = 1 µM, sex of neuron culture: Female
[6] = 1 µM, sex of neuron culture: Male
[7] = 10 µM, sex of neuron culture: Female
[8] = 10 µM, sex of neuron culture: Male

## O=C(Nc1ccccc1-c1ccc(Cl)cc1)c1cccnc1Cl [Boscalid]
[1]
  cell health score: 0.000644
[2]
  cell health score: 0.000849
[3]
  cell health score: 0.000748
[4]
  cell health score: 0.000721
[5]
  cell health score: 0.000757
[6]
  cell health score: 0.000548
[7]
  cell health score: 0.000784
[8]
  cell health score: 0.000559

## CC(C(C)N1CC(=O)NC(=O)C1)N1CC(=O)NC(=O)C1 (stereo not given) [ICRF193]
[1]
  cell health score: 0.000716
[2]
  cell health score: 0.000844
[3]
  cell health score: 0.000996
[4]
  cell health score: 0.000919
[5]
  cell health score: 0.000957
[6]
  cell health score: 0.00106
[7]
  cell health score: 0.00137
[8]
  cell health score: 0.00106

## CCNc1nc(NC(C)C)nc(SC)n1 [Ametryn]
[1]
  cell health score: 0.000631
[2]
  cell health score: 0.000904
[3]
  cell health score: 0.000923
[4]
  cell health score: 0.000527
[5]
  cell health score: 0.000905
[6]
  cell health score: 0.000564
[7]
  cell health score: 0.00104
[8]
  cell health score: 0.000653

## CCCCC(C#N)(Cn1cncn1)c1ccc(Cl)cc1 (stereo not given) [Myclobutanil]
[1]
  cell health score: 0.000579
[2]
  cell health score: 0.000651
[3]
  cell health score: 0.000928
[4]
  cell health score: 0.000636
[5]
  cell health score: 0.000602
[6]
  cell health score: 0.000508
[7]
  cell health score: 0.000528
[8]
  cell health score: 0.00174

## CC(C)OC(=O)Nc1cccc(Cl)c1 [Chlorpropham]
[1]
  cell health score: 0.000693
[2]
  cell health score: 0.00077
[3]
  cell health score: 0.000881
[4]
  cell health score: 0.000938
[5]
  cell health score: 0.000694
[6]
  cell health score: 0.000532
[7]
  cell health score: 0.00115
[8]
  cell health score: 0.000811

## CC(C)N1C(=O)c2ccccc2NS1(=O)=O [Bentazone]
[1]
  cell health score: 0.00055
[2]
  cell health score: 0.000623
[3]
  cell health score: 0.000949
[4]
  cell health score: 0.000634
[5]
  cell health score: 0.002
[6]
  cell health score: 0.000647
[7]
  cell health score: 0.000781
[8]
  cell health score: 0.000791

## O=c1[nH]c(=O)n([C@H]2C[C@H](O)[C@@H](CO)O2)cc1F [Fluorodeoxy uridine (FdU)]
[1]
  cell health score: 0.00101
[2]
  cell health score: 0.000619
[3]
  cell health score: 0.000757
[4]
  cell health score: 0.000983
[5]
  cell health score: 0.000647
[6]
  cell health score: 0.00054
[7]
  cell health score: 0.000672
[8]
  cell health score: 0.00145

## COP(=O)(OC)SCn1c(=O)oc2cc(Cl)cnc21 [Azamethiphos]
[1]
  cell health score: 0.000444
[2]
  cell health score: 0.0009
[3]
  cell health score: 0.000794
[4]
  cell health score: 0.000845
[5]
  cell health score: 0.000778
[6]
  cell health score: 0.000628
[7]
  cell health score: 0.00123
[8]
  cell health score: 0.000556

## Cc1nc(N(C)C)nc(OC(=O)N(C)C)c1C [Pirimicarb]
[1]
  cell health score: 0.000722
[2]
  cell health score: 0.000907
[3]
  cell health score: 0.000814
[4]
  cell health score: 0.00112
[5]
  cell health score: 0.000648
[6]
  cell health score: 0.00074
[7]
  cell health score: 0.00117
[8]
  cell health score: 0.000582

## CC(C)Nc1nc(Cl)nc(NC(C)C)n1 [Propazine]
[1]
  cell health score: 0.000484
[2]
  cell health score: 0.000902
[3]
  cell health score: 0.000732
[4]
  cell health score: 0.000822
[5]
  cell health score: 0.000883
[6]
  cell health score: 0.000474
[7]
  cell health score: 0.000993
[8]
  cell health score: 0.000662

## O=C(NC(=O)c1c(F)cccc1F)Nc1ccc(OC(F)(F)C(F)OC(F)(F)F)c(Cl)c1 (stereo not given) [Novaluron]
[1]
  cell health score: 0.000745
[2]
  cell health score: 0.000924
[3]
  cell health score: 0.000911
[4]
  cell health score: 0.000959
[5]
  cell health score: 0.000737
[6]
  cell health score: 0.00136
[7]
  cell health score: 0.00109
[8]
  cell health score: 0.000785

## CN1CSC(=S)N(C)C1 [Dazomet]
[1]
  cell health score: 0.000505
[2]
  cell health score: 0.000751
[3]
  cell health score: 0.000722
[4]
  cell health score: 0.000735
[5]
  cell health score: 0.00103
[6]
  cell health score: 0.000572
[7]
  cell health score: 0.00113
[8]
  cell health score: 0.000937

## CC1(C)C(C=C(Cl)Cl)C1C(=O)OC(C#N)c1cccc(Oc2ccccc2)c1 (stereo not given) [Cypermethrin]
[1]
  cell health score: 0.000626
[2]
  cell health score: 0.00118
[3]
  cell health score: 0.000728
[4]
  cell health score: 0.000922
[5]
  cell health score: 0.001
[6]
  cell health score: 0.000841
[7]
  cell health score: 0.000722
[8]
  cell health score: 0.00145

## N#Cc1nn(-c2c(Cl)cc(C(F)(F)F)cc2Cl)c(N)c1[S+]([O-])C(F)(F)F (stereo not given) [Fipronil]
[1]
  cell health score: 0.000572
[2]
  cell health score: 0.000843
[3]
  cell health score: 0.000751
[4]
  cell health score: 0.00105
[5]
  cell health score: 0.00127
[6]
  cell health score: 0.000696
[7]
  cell health score: 0.00226
[8]
  cell health score: 0.00226

## CCSC(=O)N(CC(C)C)CC(C)C [Butylate]
[1]
  cell health score: 0.000711
[2]
  cell health score: 0.00128
[3]
  cell health score: 0.00125
[4]
  cell health score: 0.000765
[5]
  cell health score: 0.000712
[6]
  cell health score: 0.00059
[7]
  cell health score: 0.00104
[8]
  cell health score: 0.000502

## CCOP(=S)(Oc1cnc(C(C)(C)C)nc1)OC(C)C (stereo not given) [Tebupirimfos]
[1]
  cell health score: 0.000732
[2]
  cell health score: 0.000627
[3]
  cell health score: 0.0006
[4]
  cell health score: 0.000745
[5]
  cell health score: 0.000928
[6]
  cell health score: 0.000581
[7]
  cell health score: 0.00126
[8]
  cell health score: 0.000523

## COC(=O)c1ccccc1C(=O)OC [Dimethyl phthalate]
[1]
  cell health score: 0.00063
[2]
  cell health score: 0.00078
[3]
  cell health score: 0.00143
[4]
  cell health score: 0.000725
[5]
  cell health score: 0.000463
[6]
  cell health score: 0.000599
[7]
  cell health score: 0.000799
[8]
  cell health score: 0.000581

## OCCOc1ccccc1 [2-Phenoxyethanol]
[1]
  cell health score: 0.000983
[2]
  cell health score: 0.000793
[3]
  cell health score: 0.000736
[4]
  cell health score: 0.000783
[5]
  cell health score: 0.00115
[6]
  cell health score: 0.000476
[7]
  cell health score: 0.00121
[8]
  cell health score: 0.000433

## OB(O)O [Boric acid]
[1]
  cell health score: 0.00066
[2]
  cell health score: 0.00102
[3]
  cell health score: 0.000879
[4]
  cell health score: 0.00112
[5]
  cell health score: 0.00103
[6]
  cell health score: 0.000607
[7]
  cell health score: 0.00139
[8]
  cell health score: 0.000712

## C[C@H]1COc2c(N3CCN(C)CC3)c(F)cc3c(=O)c(C(=O)O)cn1c23 [Levofloxacin]
[1]
  cell health score: 0.000469
[2]
  cell health score: 0.000682
[3]
  cell health score: 0.000882
[4]
  cell health score: 0.000681
[5]
  cell health score: 0.000832
[6]
  cell health score: 0.000569
[7]
  cell health score: 0.000862
[8]
  cell health score: 0.000722
